These results are taken from PubChem BioAssay AID330 (DTP/NCI, 2004).

The list does not hold the whole screen: it is rich in T/C values a quarter to a half above the control, in often repeated tests (any T/C) and in doses without a T/C. Further doses and runs are listed elsewhere. T/C is the treated group as % of the vehicle group. Some doses have a count of surviving animals in place of a T/C: the source holds a T/C of zero for them, seemingly a mark for toxic or unscored doses. Some survivor counts are full or nearly so, which does not show that the dose was tolerated: the source hardly ever lists a survival T/C far under the control, and the zero likely stands for such cases as well. Counts of survivors are from the toxicity check (mostly the fifth day) where no day follows; animals may have died later. Schedules are NCI's codes, taken here to give the interval after Q, in days (D) or hours (H), and the number of doses after X. Some entries hold several experiments; the results are listed from low to high. For survival time, this PubChem deposit counts one and a half times the control or more as active, and values a quarter to a half above the control carry no call in these data; other NCI protocols may use other cut-offs.

For this experiment, the system named is P388 leukemia ip, CD2F1 mice, survival T/C. As to the kind of experiment: NCI In Vivo Anticancer Drug Screen. Data for tumor model P388 Leukemia (intraperitoneal) in CD2F1 (CDF1) mice. As to conditions: T/C endpoint: median survival time, higher T/C = longer survival.
The mark [1] stands for this setting: dose: 100.0 mg/kg/injection, schedule: Q01DX009 (ip), vehicle: saline.
The mark [2] stands for this setting: dose: 200.0 mg/kg/injection, schedule: Q01DX009 (ip), vehicle: saline.
Setting [3] is: dose: 12.5 mg/kg/injection, schedule: Q01DX009 (ip), vehicle: saline with Tween-80.
[4] abbreviates: dose: 28.4 mg/kg/injection, schedule: Q04DX003 (ip), vehicle: saline with Tween-80.
Setting [5] is: dose: 60.0 mg/kg/injection, schedule: Q01DX009 (ip), vehicle: saline.
Setting [6] is: dose: 100.0 mg/kg/injection, schedule: Q01DX009 (ip), vehicle: saline with Tween-80.
Where [7] appears, read: dose: 200.0 mg/kg/injection, schedule: Q01DX009 (ip), vehicle: saline with Tween-80.
[8] abbreviates: dose: 200.0 mg/kg/injection, schedule: Q01DX009 (ip), vehicle: Klucel (hydroxypropylcellulose) (HPC).
[9] abbreviates: dose: 50.0 mg/kg/injection, schedule: Q01DX009 (ip), vehicle: saline with Tween-80.

For the compound `Clc1ccc2ccc3ccccc3c2n1`, the survivor count is given as 6 of 6 under setting [1] and 6 of 6 under setting [2].
As to `COC(=O)C12Oc3ccc(-c4ccc5c(c4O)C(O)=C4C(=O)CC(C)C(O)C4(C(=O)OC)O5)c(O)c3C(O)=C1C(=O)CC(C)C2O` (stereo unspecified), the survivor count is, setting by setting: (dose: 6.25 mg/kg/injection, schedule: Q01DX009 (ip), vehicle: saline with Tween-80) 6 of 6; under setting [3], 6 of 6; (dose: 25.0 mg/kg/injection, schedule: Q01DX009 (ip), vehicle: saline with Tween-80) 5 of 6. The T/C (dose: 12.5 mg/kg/injection, schedule: Q04DX003 (ip), vehicle: saline with Tween-80) is 127 % of control.
With `CC(C)CC(NC(=O)C(N)Cc1ccc(N(CCCl)CCCl)cc1)C(=O)O` (stereo unspecified), the T/C reads like this: (dose: 2.5 mg/kg/injection, schedule: Q04DX003 (ip), vehicle: saline with Tween-80) 144 % of control; (dose: 8.4 mg/kg/injection, schedule: Q04DX003 (ip), vehicle: saline with Tween-80) 130 % of control; (dose: 12.6 mg/kg/injection, schedule: Q04DX003 (ip), vehicle: saline with Tween-80) 138 % of control; (dose: 18.9 mg/kg/injection, schedule: Q04DX003 (ip), vehicle: saline with Tween-80) 140 % of control; under setting [4], 149 % of control. Moreover, the survivor count under setting [4] was 10 of 10; the survivor count (dose: 32.0 mg/kg/injection, schedule: Q04DX003 (ip), vehicle: saline with Tween-80) is on record as 5 of 10; the survivor count (dose: 42.6 mg/kg/injection, schedule: Q04DX003 (ip), vehicle: saline with Tween-80) was 8 of 10; the survivor count (dose: 64.0 mg/kg/injection, schedule: Q04DX003 (ip), vehicle: saline with Tween-80) is 5 of 10 and 7 of 10; the survivor count (dose: 128.0 mg/kg/injection, schedule: Q04DX003 (ip), vehicle: saline with Tween-80) is listed as 0 of 10; the survivor count (dose: 256.0 mg/kg/injection, schedule: Q04DX003 (ip), vehicle: saline with Tween-80) was 0 of 10 and 5 of 10.
Consider `COc1ccc(CCN)cc1OC`, for which the survivor count (dose: 400.0 mg/kg/injection, schedule: Q01DX009 (ip), vehicle: saline) was 0 of 6 and the survivor count (dose: 600.0 mg/kg/injection, schedule: Q01DX009 (ip), vehicle: saline) is recorded as 0 of 6.
As to `COc1ccccc1[N+]([O-])=NC#N`, the survivor count was 0 of 6 (dose: 50.0 mg/kg/injection, schedule: Q04DX003 (ip), vehicle: Klucel (hydroxypropylcellulose) (HPC)); 0 of 6 (dose: 100.0 mg/kg/injection, schedule: Q04DX003 (ip), vehicle: Klucel (hydroxypropylcellulose) (HPC)); 0 of 6 (dose: 200.0 mg/kg/injection, schedule: Q04DX003 (ip), vehicle: Klucel (hydroxypropylcellulose) (HPC)).
In the case of `COC(=O)NC1C(C)OC(OC2C/C=C(/C)C3C=CC4C(OC5CC(OC6CC(OC7CC(O)C(O)C(C)O7)C(OC7CC(O)C(OC)C(C)O7)C(C)O6)C(O)C(C)O5)C(C)CC(C)C4C3(C)/C(O)=C3\C(=O)OC4(CC(C)C(CO)=CC4/C=C\2C)C3=O)CC1(C)[N+](=O)[O-]` (stereo unspecified), the T/C was 136 % of control (dose: 30.0 mg/kg/injection, schedule: Q01DX009 (ip), vehicle: saline) and 134 % of control under setting [5]. The survivor count under setting [5] was 5 of 5 and the survivor count (dose: 120.0 mg/kg/injection, schedule: Q01DX009 (ip), vehicle: saline) was 3 of 6.
As for `Cc1ccc(C(=O)NCCN2CCN3Cc4[nH]c5ccccc5c4CC3C2)cc1` (stereo unspecified), the survivor count (dose: 400.0 mg/kg/injection, schedule: Q04DX002 (ip), vehicle: saline with Tween-80) is 2 of 6.
Take `O=S1(=O)Cc2ccccc21`: the survivor count (dose: 400.0 mg/kg/injection, schedule: Q01DX001 (ip), vehicle: Klucel (hydroxypropylcellulose) (HPC)) is given as 0 of 6.
With `CCC(N)Cc1cc(OC)c(C)cc1OC` (stereo unspecified), the survivor count is on record as 4 of 6 under setting [6] and 0 of 6 under setting [7].
With `Cn1c2c(c(=O)c3c4[nH]c5c(c(=O)c4ccc31)CCCC5)CCCC2`, the survivor count (dose: 200.0 mg/kg/injection, schedule: Q04DX003 (ip), vehicle: saline with Tween-80) is reported as 6 of 6.
In the case of `COc1ccc2c(c1)nnn2C(=O)/C=C/c1ccccc1`, the survivor count under setting [6] was 6 of 6 and the survivor count under setting [7] was 6 of 6.
For the compound `O=c1[nH]c(Sc2ccccn2)ccc1[N+](=O)[O-]`, the survivor count (dose: 6.25 mg/kg/injection, schedule: Q01DX009 (ip), vehicle: Klucel (hydroxypropylcellulose) (HPC)) was 6 of 6; the survivor count (dose: 12.5 mg/kg/injection, schedule: Q01DX009 (ip), vehicle: Klucel (hydroxypropylcellulose) (HPC)) is 6 of 6; the survivor count (dose: 50.0 mg/kg/injection, schedule: Q01DX009 (ip), vehicle: Klucel (hydroxypropylcellulose) (HPC)) was 6 of 6; the survivor count (dose: 100.0 mg/kg/injection, schedule: Q01DX009 (ip), vehicle: Klucel (hydroxypropylcellulose) (HPC)) was 6 of 6; the survivor count under setting [8] is given as 1 of 6.
With `CCCCN(CCCC)CC(O)c1cc2ccc(C(F)(F)F)cc2c2cc(C(F)(F)F)ccc12` (stereo unspecified), the survivor count under setting [9] is given as 6 of 6.
As for `CN1CC(C(=O)O)=Nc2c1nc(N)[nH]c2=O`, the survivor count by setting is: under setting [9], 6 of 6; under setting [6], 0 of 6; under setting [7], 0 of 6.
Turning to `CC(=O)OC1(C)CC2(CCCCC2)N=N1` (stereo unspecified), the T/C (dose: 200.0 mg/kg/injection, schedule: Q01DX009 (ip), vehicle: other) is 148 % of control.
`CC(=O)Nc1c([N+](=O)[O-])cc2c3c(cccc13)CC2`: the survivor count (dose: 400.0 mg/kg/injection, schedule: Q01DX009 (ip), vehicle: saline with Tween-80) is on record as 3 of 6.
For the compound `O=NN(CCCl)C(=O)NC1[C@H](O)CCC[C@@H]1O` (stereo partly specified), the T/C (dose: 1.25 mg/kg/injection, schedule: Q01DX005 (ip), vehicle: saline) was 142 % of control. The survivor count is recorded as 6 of 6 (dose: 12.5 mg/kg/injection, schedule: Q01DX005 (ip), vehicle: saline); 6 of 6 (dose: 20.0 mg/kg/injection, schedule: Q01DX005 (ip), vehicle: saline); 5 of 6 (dose: 25.0 mg/kg/injection, schedule: Q01DX005 (ip), vehicle: saline); 5 of 6 (dose: 40.0 mg/kg/injection, schedule: Q01DX005 (ip), vehicle: saline); 2 of 6 (dose: 50.0 mg/kg/injection, schedule: Q01DX005 (ip), vehicle: saline); 0 of 6 (dose: 100.0 mg/kg/injection, schedule: Q01DX005 (ip), vehicle: saline).
Regarding `CCOCCOCCOC12C(=O)C(Cl)=C(Cl)C(=O)C13C1CC2C(Cl)C13` (stereo unspecified), the survivor count under setting [1] is 1 of 6 and the survivor count under setting [2] was 0 of 6.
With `COC(=O)C(Sc1ccc(Cl)cc1)C1SC(=S)N(C)C1=O` (stereo unspecified), the T/C under setting [3] is 135 % of control.
For the compound `CC1CCC(C(C)C)C(OC(=O)c2cccc[n+]2C)C1` (stereo unspecified), the survivor count reads like this: (dose: 60.0 mg/kg/injection, schedule: Q01DX005 (ip), vehicle: saline) 0 of 6; (dose: 120.0 mg/kg/injection, schedule: Q01DX005 (ip), vehicle: saline) 0 of 6; (dose: 240.0 mg/kg/injection, schedule: Q01DX005 (ip), vehicle: saline) 0 of 6.
For `COc1ccc(C(=O)N2C(=O)CCC2=O)cc1`, under setting [8], the T/C was 126 % of control.
Take `COC(=O)c1cc(=O)n(-c2cccc(OC)c2)c(SC)n1`: the survivor count (dose: 200.0 mg/kg/injection, schedule: Q04DX002 (ip), vehicle: Klucel (hydroxypropylcellulose) (HPC)) is recorded as 3 of 6 and the survivor count (dose: 400.0 mg/kg/injection, schedule: Q04DX002 (ip), vehicle: Klucel (hydroxypropylcellulose) (HPC)) was 0 of 6.
With `COc1ccc(NC(=O)c2cc3ccc4c5ccccc5[nH]c4c3cc2O)cc1`, for the setting “dose: 200.0 mg/kg/injection, schedule: Q01DX005 (ip), vehicle: saline with Tween-80”, the survivor count is 6 of 6.
